These are yes or no findings as the source states them, for the method shown. Binding seen in cells or lysates may run through a third protein. Some entries that bind do so weakly or less than the wild type. For some assays here: Where a sequence is shown, tags or fusion partners need not be part of it.
Tests used:
HA-MYPT1-wild type = HA-MYPT1-wild type (UniProt O14974); assay: co-IP
HA-MYPT1-4A = HA-MYPT1-4A (UniProt O14974); assay: co-IP
GST-MYPT1-FL = GST-MYPT1-FL (UniProt O14974); assay: pull-down
GST-MYPT1-F3 (586-901) = GST-MYPT1-F3 (586-901) (UniProt O14974); assay: pull-down
GST-MYPT1-F2 (297-600) = GST-MYPT1-F2 (297-600) (UniProt O14974); assay: pull-down

Protein sequences, listed by entry. Tags and fused reporters are not part of them. Lines headed by an entry give the natural chain unless they say otherwise; changes in a name come on top. Chains listed by the source or under a name are the forms on record and can include a tag or linker. Residues count along the entry.
UniProt O14974: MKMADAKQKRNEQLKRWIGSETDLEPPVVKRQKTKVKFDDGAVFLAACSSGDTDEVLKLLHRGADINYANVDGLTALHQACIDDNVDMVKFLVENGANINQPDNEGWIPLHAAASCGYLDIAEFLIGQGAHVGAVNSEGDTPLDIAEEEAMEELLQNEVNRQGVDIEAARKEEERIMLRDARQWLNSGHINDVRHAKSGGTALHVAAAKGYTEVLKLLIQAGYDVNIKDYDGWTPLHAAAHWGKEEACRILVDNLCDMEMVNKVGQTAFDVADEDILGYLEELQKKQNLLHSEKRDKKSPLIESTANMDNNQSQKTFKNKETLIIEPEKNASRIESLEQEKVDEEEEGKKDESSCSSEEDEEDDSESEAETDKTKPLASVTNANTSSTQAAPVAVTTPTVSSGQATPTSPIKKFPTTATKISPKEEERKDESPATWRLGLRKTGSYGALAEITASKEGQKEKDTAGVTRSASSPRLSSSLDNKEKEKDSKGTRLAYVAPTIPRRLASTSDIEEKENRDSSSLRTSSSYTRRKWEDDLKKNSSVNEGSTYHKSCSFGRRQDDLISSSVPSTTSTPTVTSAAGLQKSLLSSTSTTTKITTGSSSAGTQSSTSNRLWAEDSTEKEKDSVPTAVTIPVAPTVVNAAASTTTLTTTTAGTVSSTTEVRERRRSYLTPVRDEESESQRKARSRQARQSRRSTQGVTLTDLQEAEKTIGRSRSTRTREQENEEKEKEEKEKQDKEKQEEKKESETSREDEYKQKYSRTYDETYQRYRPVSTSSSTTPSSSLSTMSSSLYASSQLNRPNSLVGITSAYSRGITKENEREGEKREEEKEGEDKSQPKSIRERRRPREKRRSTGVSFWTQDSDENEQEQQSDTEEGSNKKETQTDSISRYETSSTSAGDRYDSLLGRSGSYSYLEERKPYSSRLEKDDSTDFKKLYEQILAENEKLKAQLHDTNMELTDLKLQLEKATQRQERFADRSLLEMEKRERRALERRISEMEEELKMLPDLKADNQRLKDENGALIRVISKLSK
GST-MYPT1-F2 (297-600): residues 297-600 of O14974
GST-MYPT1-F3 (586-901): residues 586-901 of O14974
HA-MYPT1-4A (O14974, form named): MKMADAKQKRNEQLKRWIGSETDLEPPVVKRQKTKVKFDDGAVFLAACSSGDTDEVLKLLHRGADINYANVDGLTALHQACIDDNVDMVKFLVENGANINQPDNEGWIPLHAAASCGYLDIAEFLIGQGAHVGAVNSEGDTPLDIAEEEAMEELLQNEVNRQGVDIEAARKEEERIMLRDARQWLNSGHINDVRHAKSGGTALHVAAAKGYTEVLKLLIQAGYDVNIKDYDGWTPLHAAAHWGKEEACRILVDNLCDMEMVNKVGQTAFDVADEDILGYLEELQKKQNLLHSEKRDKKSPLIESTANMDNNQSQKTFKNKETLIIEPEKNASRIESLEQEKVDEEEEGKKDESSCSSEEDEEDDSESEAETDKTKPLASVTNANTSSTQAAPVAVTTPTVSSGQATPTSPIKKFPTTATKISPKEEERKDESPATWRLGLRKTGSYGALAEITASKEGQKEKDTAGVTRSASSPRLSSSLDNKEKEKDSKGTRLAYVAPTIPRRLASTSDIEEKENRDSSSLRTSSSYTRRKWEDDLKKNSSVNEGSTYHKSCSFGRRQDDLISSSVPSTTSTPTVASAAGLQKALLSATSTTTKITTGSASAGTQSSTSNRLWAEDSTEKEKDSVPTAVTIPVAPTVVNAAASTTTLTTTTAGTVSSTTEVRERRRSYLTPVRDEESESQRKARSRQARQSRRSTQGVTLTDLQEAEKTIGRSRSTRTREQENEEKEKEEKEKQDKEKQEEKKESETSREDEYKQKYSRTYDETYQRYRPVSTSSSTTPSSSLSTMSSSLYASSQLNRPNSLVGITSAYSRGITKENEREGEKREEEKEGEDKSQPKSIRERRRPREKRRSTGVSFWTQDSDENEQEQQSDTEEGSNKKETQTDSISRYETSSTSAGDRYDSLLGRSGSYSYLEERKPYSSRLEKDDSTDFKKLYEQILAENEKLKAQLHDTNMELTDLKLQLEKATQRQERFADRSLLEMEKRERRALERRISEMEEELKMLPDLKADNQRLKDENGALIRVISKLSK

Question: Which binding (HA-MYPT1-wild type) does the source give for “Flag-PLK1 (from UniProt P53350 1-603) (enzyme)” here?
Answer: binds

Question: And the binding (HA-MYPT1-4A)?
Answer: binds

B1: Myc-OGT (enzyme, UniProt O15294 1-1046)
chain: MASSVGNVADSTEPTKRMLSFQGLAELAHREYQAGDFEAAERHCMQLWRQEPDNTGVLLLLSSIHFQCRRLDRSAHFSTLAIKQNPLLAEAYSNLGNVYKERGQLQEAIEHYRHALRLKPDFIDGYINLAAALVAAGDMEGAVQAYVSALQYNPDLYCVRSDLGNLLKALGRLEEAKACYLKAIETQPNFAVAWSNLGCVFNAQGEIWLAIHHFEKAVTLDPNFLDAYINLGNVLKEARIFDRAVAAYLRALSLSPNHAVVHGNLACVYYEQGLIDLAIDTYRRAIELQPHFPDAYCNLANALKEKGSVAEAEDCYNTALRLCPTHADSLNNLANIKREQGNIEEAVRLYRKALEVFPEFAAAHSNLASVLQQQGKLQEALMHYKEAIRISPTFADAYSNMGNTLKEMQDVQGALQCYTRAIQINPAFADAHSNLASIHKDSGNIPEAIASYRTALKLKPDFPDAYCNLAHCLQIVCDWTDYDERMKKLVSIVADQLEKNRLPSVHPHHSMLYPLSHGFRKAIAERHGNLCLDKINVLHKPPYEHPKDLKLSDGRLRVGYVSSDFGNHPTSHLMQSIPGMHNPDKFEVFCYALSPDDGTNFRVKVMAEANHFIDLSQIPCNGKAADRIHQDGIHILVNMNGYTKGARNELFALRPAPIQAMWLGYPGTSGALFMDYIITDQETSPAEVAEQYSEKLAYMPHTFFIGDHANMFPHLKKKAVIDFKSNGHIYDNRIVLNGIDLKAFLDSLPDVKIVKMKCPDGGDNADSSNTALNMPVIPMNTIAEAVIEMINRGQIQITINGFSISNGLATTQINNKAATGEEVPRTIIVTTRSQYGLPEDAIVYCNFNQLYKIDPSTLQMWANILKRVPNSVLWLLRFPAVGEPNIQQYAQNMGLPQNRIIFSPVAPKEEHVRRGQLADVCLDTPLCNGHTTGMDVLWAGTPMVTMPGETLASRVAASQLTCLGCLELIAKNRQEYEDIAVKLGTDLEYLKKVRGKVWKQRISSPLFNTKQYTMELERLYLQMWEHYAAGNKPDHMIKPVEVTESA
Question: Which results are given for B1?
Answer: binding (GST-MYPT1-FL): binds; binding (GST-MYPT1-F3 (586-901)): binds; binding (GST-MYPT1-F2 (297-600)): binds

Reference: paper doi:10.1101/795674
